From article PMC2808209 come the findings set out here.

These are yes or no findings as the source states them, for the method shown. Binding seen in cells or lysates may run through a third protein. Some binding calls cover weakened binding; strength is not graded here. Tags and fused reporters may be left off the sequences shown.

One experiment concerns the target T1, GFP-GRASP-1 (rat) (UniProt Q9JHZ4).
T1 sequence: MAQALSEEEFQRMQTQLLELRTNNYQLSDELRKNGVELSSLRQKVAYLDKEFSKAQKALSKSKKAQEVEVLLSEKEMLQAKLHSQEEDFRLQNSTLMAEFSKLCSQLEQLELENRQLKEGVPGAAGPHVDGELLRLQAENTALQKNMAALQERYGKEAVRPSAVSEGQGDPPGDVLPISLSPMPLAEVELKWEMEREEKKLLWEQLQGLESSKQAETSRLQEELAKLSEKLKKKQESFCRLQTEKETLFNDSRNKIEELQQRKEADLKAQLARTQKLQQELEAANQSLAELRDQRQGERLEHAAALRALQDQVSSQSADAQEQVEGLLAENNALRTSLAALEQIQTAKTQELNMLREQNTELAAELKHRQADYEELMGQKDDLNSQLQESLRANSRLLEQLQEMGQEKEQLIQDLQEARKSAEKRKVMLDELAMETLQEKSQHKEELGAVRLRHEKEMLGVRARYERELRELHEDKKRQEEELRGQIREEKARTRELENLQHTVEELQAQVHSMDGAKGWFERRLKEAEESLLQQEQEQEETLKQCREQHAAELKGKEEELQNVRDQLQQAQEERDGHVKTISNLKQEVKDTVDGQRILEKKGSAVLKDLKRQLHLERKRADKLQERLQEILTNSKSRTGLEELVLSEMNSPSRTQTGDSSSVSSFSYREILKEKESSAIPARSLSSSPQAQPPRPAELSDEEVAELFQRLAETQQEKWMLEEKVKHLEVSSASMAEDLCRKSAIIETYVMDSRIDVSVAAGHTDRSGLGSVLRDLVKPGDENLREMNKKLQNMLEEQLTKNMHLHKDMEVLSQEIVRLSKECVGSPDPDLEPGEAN
The experiment can be described thus: co-IP; COS-7 cells cotransfected with a GFP-tagged and a myc-tagged construct; rabbit GFP antibody coated beads, 2 h at 4°C; 20 mM Hepes pH 7.4, 200 mM NaCl, 1% NP-40; anti-myc blot.

The target in another experiment is T2, GFP-syntaxin 13 (UniProt G3V7P1).
T2 sequence: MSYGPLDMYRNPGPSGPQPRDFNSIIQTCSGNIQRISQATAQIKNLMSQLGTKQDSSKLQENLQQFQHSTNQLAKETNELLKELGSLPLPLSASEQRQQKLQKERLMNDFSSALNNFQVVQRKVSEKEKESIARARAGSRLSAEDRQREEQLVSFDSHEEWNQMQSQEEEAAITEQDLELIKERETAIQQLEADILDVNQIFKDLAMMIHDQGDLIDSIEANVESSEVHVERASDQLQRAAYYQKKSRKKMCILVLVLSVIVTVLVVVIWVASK
Described as above.

B1: myc-syntaxin 13 (protein, UniProt G3V7P1 1-274)
chain: T2 sequence
As for B1, the binding result with GFP-GRASP-1 (rat) is recorded as “binds”.

B2: myc-GRASP-1(695–837) (domain or fragment, UniProt Q9JHZ4-1 695-837)
chain: RPAELSDEEVAELFQRLAETQQEKWMLEEKVKHLEVSSASMAEDLCRKSAIIETYVMDSRIDVSVAAGHTDRSGLGSVLRDLVKPGDENLREMNKKLQNMLEEQLTKNMHLHKDMEVLSQEIVRLSKECVGSPDPDLEPGEAN
Regarding B2, in the experiment with GFP-syntaxin 13, the binding result is on record as “binds”.

B3: myc-GRASP-1, full length (1-837) (protein, UniProt Q9JHZ4-1 1-837)
chain: T1 sequence
Regarding B3, in the experiment with GFP-syntaxin 13, the binding entry was “binds”.
